US11592453B2, “Personalized metabolomic profiling of specialized pro-resolving mediators” (THE BRIGHAM AND WOMEN'S HOSPITAL, INC., priority 2016, dated 2023)

Experiment: LC-MS/MS LM metabololipidomics of human whole blood during coagulation
Conditions: for LM concentration, Coagulation t = 0 h, Avg / LM concentration, Coagulation t = 0.25 h, Avg / LM concentration, Coagulation t = 0.5 h, Avg / LM concentration, Coagulation t = 1 h, Avg / LM concentration, Coagulation t = 3 h, Avg / LM concentration, Coagulation t = 6 h, Avg / LM concentration, Coagulation t = 24 h, Avg: human whole blood, mean of 12 donors; for highest concentrations of SPMs generated within 24 hours of coagulation in blood: healthy donors

Row | SMILES | LM concentration, Coagulation t = 0 h, Avg | LM concentration, Coagulation t = 0.25 h, Avg | LM concentration, Coagulation t = 0.5 h, Avg | LM concentration, Coagulation t = 1 h, Avg | LM concentration, Coagulation t = 3 h, Avg | LM concentration, Coagulation t = 6 h, Avg | LM concentration, Coagulation t = 24 h, Avg | highest concentrations of SPMs generated within 24 hours of coagulation in blood
1 | CCCCC[C@H](O)/C=C/C=C\C=C\C=C\[C@@H](O)[C@@H](O)CCCC(=O)O [LXA4, lipoxin A4 (5S, 6R, 15S-trihydroxy-eicosa-7E, 9E, 11Z, 13E-tetraenoic acid)] | — ((—) denotes concentrations < 0.1 pg/ml) | — ((—) denotes concentrations < 0.1 pg/ml) | — ((—) denotes concentrations < 0.1 pg/ml) | — ((—) denotes concentrations < 0.1 pg/ml) | — ((—) denotes concentrations < 0.1 pg/ml) | — ((—) denotes concentrations < 0.1 pg/ml) | — ((—) denotes concentrations < 0.1 pg/ml) | 
2 | CCCCC[C@H](O)[C@H](O)/C=C/C=C/C=C\C=C\[C@@H](O)CCCC(=O)O [LXB4, lipoxin B4: (5S, 14R, 15S-trihydroxy-eicosa-6E, 8Z, 10E, 12E-tetraenoic acid)] | 1.1 pg/mL | 1.0 pg/mL | 0.9 pg/mL | 1.6 pg/mL | 3.8 pg/mL | 3.0 pg/mL | 29.6 pg/mL | 303 pM
3 | CC/C=C\C/C=C\C[C@H](O)\C=C/C=C/C=C/[C@H](O)C/C=C\CCC(=O)O [Maresin 1, maresin 1 (7R, 14S-dihydroxy-docosa-4Z, 8E, 10E, 12Z, 16Z, 19Z-hexaenoic acid)] | 1.4 pg/mL | 2.9 pg/mL | 2.4 pg/mL | 1.6 pg/mL | 5.2 pg/mL | 7.1 pg/mL | 10.3 pg/mL | 209 pM
4 | CC/C=C\C[C@H](O)\C=C/C=C/C=C/[C@H](O)C/C=C\C/C=C\CCC(=O)O [PD1, protectin D1 (10R, 17S-dihydroxy-docosa-4Z, 7Z, 11E, 13E, 15Z, 19Z-hexaenoic acid)] | 0.8 pg/mL | 0.8 pg/mL | 0.8 pg/mL | 0.8 pg/mL | 0.8 pg/mL | 1.5 pg/mL | 2.2 pg/mL | 
5 | CCCCC[C@H](O)/C=C/[C@H]1C(=O)C[C@H](O)[C@@H]1C/C=C\CCCC(=O)O [PGD2, 11-oxo-9α, 15S-dihydroxy-prosta-5Z, 13E-dien-1-oic acid] | 1.5 pg/mL | 1.6 pg/mL | 6.5 pg/mL | 15.6 pg/mL | 10.3 pg/mL | 12.2 pg/mL | 24.1 pg/mL | 
6 | CCCCC[C@H](O)/C=C/[C@H]1[C@H](O)CC(=O)[C@@H]1C/C=C\CCCC(=O)O [PGE2, 9-oxo-11α, 15S-dihydroxy-prosta-5Z, 13E-dien-1-oic acid] | 2.2 pg/mL | 3.0 pg/mL | 22.1 pg/mL | 65.6 pg/mL | 83.8 pg/mL | 108.1 pg/mL | 1286.8 pg/mL | 
7 | CCCCC[C@H](O)/C=C/[C@@H]1[C@@H](C/C=C\CCCC(=O)O)[C@@H](O)C[C@H]1O [PGF2a, 9α, 11α, 15S-trihydroxy-prosta-5Z, 13E-dienoic acid] | 1.1 pg/mL | 1.7 pg/mL | 7.4 pg/mL | 19.5 pg/mL | 31.6 pg/mL | 44.1 pg/mL | 168.4 pg/mL | 
